## Library screen at single concentrations

Chains of the proteins cited; added tags and fusions are not shown. Residues count along the entry.
UniProt Q8IDJ8, 1-583: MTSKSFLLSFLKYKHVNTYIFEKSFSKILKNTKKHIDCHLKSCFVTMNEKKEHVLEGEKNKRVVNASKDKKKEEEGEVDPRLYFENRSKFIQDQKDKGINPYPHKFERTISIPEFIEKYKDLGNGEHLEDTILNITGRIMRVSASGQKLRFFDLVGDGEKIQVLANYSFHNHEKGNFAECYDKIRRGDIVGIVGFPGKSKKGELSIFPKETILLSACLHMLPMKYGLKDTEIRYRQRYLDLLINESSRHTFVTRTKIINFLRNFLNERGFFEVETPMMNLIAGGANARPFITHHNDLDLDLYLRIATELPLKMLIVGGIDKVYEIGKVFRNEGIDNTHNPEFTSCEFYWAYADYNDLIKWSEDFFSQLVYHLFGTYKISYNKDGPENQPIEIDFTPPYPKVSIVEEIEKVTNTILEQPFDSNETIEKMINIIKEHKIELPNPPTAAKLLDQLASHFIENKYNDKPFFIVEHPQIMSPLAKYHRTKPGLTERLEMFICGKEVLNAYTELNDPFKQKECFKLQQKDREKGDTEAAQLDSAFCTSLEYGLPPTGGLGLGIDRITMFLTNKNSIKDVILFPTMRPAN

Results are given as percent effect.
The controls that fix the scale are not given in the record; negative values are as filed.
Compounds were drawn at random from those tested, without regard to their results.

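Enzyme assay of the cytosolic lysyl-tRNA synthetase in 384-well plates, read by luminescence. Target: Lysine-tRNA ligase, Plasmodium falciparum 3D7 (UniProt Q8IDJ8). Tested at 30 µM. Higher reads as stronger inhibition, judged from the few compounds that gave an IC50. Size under these conditions: about 69,000 compounds, about 49 of them at 50% or above in at least one test.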

| structure | effect |
|---|---|
| `COCCOCC(=O)N(C)Cc1ccc(OCc2cccs2)cc1` | 5.649 |
| `CCn1cnnc1C1CCN(C(=O)c2cccc(OC)c2OC)CC1` | -1.125 |
| `COCC(NC(=O)NCc1ccc(C)c(F)c1)c1ccco1` (centres unmarked) | 2.159 |
| `CCS(=O)(=O)c1nnc([C@@H](N)Cc2ccccc2)o1` | 0.2219 |
| `CC(C)c1cc(=O)[nH]c(C(C)(C)N)n1` | 0.3453 |
| `NC(=O)NCC(=O)N1CCCC(OCc2cccnc2)C1` (centres unmarked) | -6.103 |
| `CCN1C(=O)C2(CCN(CCN(C)C)CC2)c2ccccc21` | 1.918 |
| `Cc1nn(C)c2c(NCc3ccccc3F)nc(C3CC3)nc12` | -0.6566 |
| `COCC1COCCC12CCN(C(=O)CC1Cc3ccccc3C1)CC2` (centres unmarked) | -5.558 |
| `COc1ccc2c(c1)OCC(CNC1CCc3ncnn3C1)=C2` (centres unmarked) | 2.044 |
| `CCOc1cc(/C=C/c2ncc(C(=O)O)s2)cc(Cl)c1OC` | 7.694 |
| `c1ccc(C2(NCC3CNc4ccnn4C3)CCC2)cc1` (centres unmarked) | 0.6275 |
| `Cc1cc2c(cc1C)C(NC1CC1)CCCO2` (centres unmarked) | 1.125 |
| `CO[C@H]1CN(C(=O)c2ccc[nH]2)[C@@H]2COC[C@H]12` | -1.366 |
| `COCC(=O)N1CCCCC1c1nc(C)c2c(n1)N(C1CC1)C(=O)CC2` (centres unmarked) | -0.3855 |
| `OCC1CCCN1c1cc(NCCc2c[nH]c3ccccc23)ncn1` (centres unmarked) | 4.324 |
| `Cc1noc(C2CCN(C(=O)CCc3ccccn3)CC2)n1` | -0.3815 |
| `Cc1nc(C)n(CC2CCCN(CCC(=O)N3CCCCC3)C2)n1` (centres unmarked) | -2.009 |
| `Cc1nc2c(c(NCCCN3CCOCC3)n1)CCN(C)C2` | -3.187 |
| `CN(C)C(=O)CN1C[C@H]2CCN(c3ncccn3)CC[C@H]2S1(=O)=O` | 7.214 |
| `Cc1cccc(C(C)(C)CNC(=O)CN(C)S(=O)(=O)c2cccnc2)c1` | -3.955 |
| `Cc1cc(C(F)(F)F)n2nc(C3CCCN3C3CCSCC3)cc2n1` (centres unmarked) | -0.1423 |
| `CCC[C@@H]1CN(S(=O)(=O)c2ccc(OC)c(OC)c2)C[C@H]1NC(C)=O` | 2.036 |
| `Cc1cccc(CN2C(=O)CCC23CCN(C(=O)c2ccco2)CC3)n1` | 1.471 |
| `CN(C)Cc1ccnc(C2CCCN2Cc2cc3ccccc3s2)n1` (centres unmarked) | 0.8842 |
| `Cc1cnc(C(=O)N2CCCC(n3cccn3)C2)cn1` (centres unmarked) | -0.5159 |
| `O=C(c1ccco1)N1CCCn2cnc(COCC3CC3)c2C1` | 2.117 |
| `CN1CCC(CCc2ccnc(Nc3cnccn3)c2)CC1` | 0.1752 |
| `Nc1nccc(N2C[C@@H](CN3CCCCC3)[C@@H](CO)C2)n1` | -0.1164 |
| `N#Cc1cc(F)c(NCCc2cccnc2)c(F)c1` | 7.532 |
| `COC(=O)CNC(=O)CC1COc2ccc(C(=O)N(C)C)cc2N1C` (centres unmarked) | 2.342 |
| `CCCS(=O)(=O)N1CCCC(c2nc(-c3ccccc3)c[nH]2)C1` (centres unmarked) | -4.573 |
| `Cc1nn(CCO)c(C)c1CNC1CCOc2ccccc21` (centres unmarked) | 4.081 |
| `CC(C)CCc1noc(CN2CCCC(CNS(N)(=O)=O)C2)n1` (centres unmarked) | 2.085 |
| `COCc1n[nH]/c(=N\C(=O)c2c3c(nc4onc(C)c24)CCC3)s1` | 3.827 |
| `COc1cc2nc(NCc3cc(C)on3)nc(N)c2cc1OC` | -0.2323 |
| `NC(=O)c1cc(C2CCCN(C(=O)CCc3ccccn3)C2)n[nH]1` (centres unmarked) | 0.4011 |
| `CCOc1ncccc1NC(=O)c1cccs1` | 3.727 |
| `O=C(CCCn1cnnn1)N1CCC(c2ccncc2)CC1` | -1.586 |
| `Cc1cnc(N2CCc3c(c(COc4cncnc4)nn3C)C2)nc1` | 1.767 |
| `CC(C)c1nccn1C1CCCN(C(=O)c2ccn(C)c(=O)c2)C1` (centres unmarked) | 6.347 |
| `CC1c2ncc(CN3CCN(C)CC3)n2CCN1Cc1cnn(C)c1` (centres unmarked) | -3.843 |
| `CCc1nc(CN(C)C2CCN(CCc3cccs3)C2)no1` (centres unmarked) | 1.702 |
| `CC(C)(C)c1nc(CN(CCC2CCCCC2)CC(N)=O)no1` | 2.722 |
| `COc1ccccc1CC(C)(C)NC(=O)CC(F)(F)F` | 4.178 |
| `CCN1CCN(c2ccc(CNC(=O)c3cnn(C)c3C)cn2)CC1` | 0.7847 |
| `CCCN1CCC(CNC(=O)C2(c3cccc(C)c3)CC2)C1` (centres unmarked) | -2.496 |
| `COc1c(C2CCCN2CC(=O)Nc2nccs2)c(C)nn1C` (centres unmarked) | 2.353 |
| `c1csc(CN2CCCN(c3ccc(Cn4ccnc4)cn3)CC2)c1` | 2.063 |
| `O=C(C1=CCCC1)N1C[C@@H]2COC[C@]2(COc2cccnc2)C1` | 2.689 |
| `Cn1cc(CN2CC[C@H]3OCC[C@@H](C(=O)N4CCCCO4)[C@@H]3C2)cn1` | 7.032 |
| `Cc1nn(C)c(C)c1C1CCCN1C(=O)c1ccc(Cl)o1` (centres unmarked) | 7.237 |
| `CC(CNS(N)(=O)=O)c1ccc(F)c(F)c1` (centres unmarked) | 3.336 |
| `NC(=O)C(CNC(=O)CCc1ccsc1)Cc1ccc(F)cc1` (centres unmarked) | -1.965 |
| `CC(C)(C)CNC1(Cc2cc(C(C)(C)O)on2)COC1` | 4.388 |
| `O=C(c1nc(Cc2c[nH]c3ccccc23)no1)N1CCCC1` | -6.498 |
| `CCOc1cccnc1C(=O)N1CCCN(c2nc(C)cs2)CC1` | 1.669 |
| `Cn1cnnc1C1CCCN(C(=O)COc2ccccc2Cl)C1` (centres unmarked) | -0.6367 |
| `O=C1CN(C(=O)c2cc(Cl)ccc2F)c2ccncc2N1` | 5.266 |
| `Cn1cc(C2CC(=O)NC23CCN(Cc2nccs2)CC3)cn1` (centres unmarked) | 2.854 |
| `COc1cccc(CC(=O)N2CCN(c3cccc(C)c3)C(C)C2)c1` (centres unmarked) | 0.7213 |
| `COCCN(C)C(=O)NCCc1coc(-c2ccc(C)cc2)n1` | 0.06709 |
| `CS(=O)(=O)c1ccc(OCCCN2CCc3cncnc3C2)cc1` | -2.207 |
| `O=C(NCc1cc2n(n1)CCCN(Cc1ccc(CO)o1)C2)C1CCC1` | -3.003 |
| `Cc1nc(C)n(CC2CCCCN2CCc2ccncc2)n1` (centres unmarked) | -0.3869 |
| `CC(C#N)(NC(=O)COc1ccccc1Br)C1CC1` (centres unmarked) | 0.9096 |
| `CN(C)CC(=O)N1Cc2nc(C(=O)N3CCCN(C)CC3)oc2C1` | 4.018 |
| `CC(C)Cc1noc(CN2CCN(CCOc3ccc(Cl)cc3)CC2)n1` | 5.057 |
| `Cc1c(C)n2c(SCC(=O)N3CCCCCC3)nnc2[nH]c1=O` | 2.207 |
| `Cc1sc2nc(CCN)nc(N3CCS(=O)(=O)CC3)c2c1C` | 3.567 |
| `CC(C)CN1C(=O)C2(CCN(CC3CCOCC3)C2)c2ccccc21` (centres unmarked) | -0.6502 |
| `Cc1nnn2c1COC(CNCc1ccncc1)C2` (centres unmarked) | 7.509 |
| `CC(C)c1ccc(C(O)Cn2c(=O)c(C#N)cn(C3CC3)c2=O)cc1` (centres unmarked) | -4.038 |
| `Cc1nc(C(=O)N2CC[C@@]3(C[C@@H](NS(C)(=O)=O)CCO3)C2)cs1` | 0.6046 |
| `Cc1cc(C(=O)N2C[C@H]3CC[C@@H]2CN(C(=O)c2ccncc2)C3)cs1` | 0.7471 |
| `Cc1ccccc1-n1cc(C2=CCN(CCn3cc[nH]c3=O)CC2)cn1` | 3.114 |
| `CNS(=O)(=O)c1ccc(CN2CCCC2c2ccc(F)cc2)cc1` (centres unmarked) | 1.395 |
| `CN(C)Cc1cnc(C2CCN(C(=O)c3ccccc3F)C2)[nH]1` (centres unmarked) | 3.127 |
| `CC(O)CNCc1c[nH]nc1-c1cc2ccccc2o1` (centres unmarked) | 3.84 |
| `CC(C)c1nccn1C1CCCN(C(=O)c2ccc3[nH]cnc3c2)C1` (centres unmarked) | 12.29 |
| `COc1cccc(S(=O)(=O)N2C[C@H](OC)[C@]3(CCCO3)C2)c1` | 2.105 |
| `COCCc1ncc(CN2CCCC(C(=O)c3ccccc3)C2)cn1` (centres unmarked) | 2.385 |
| `COCC(=O)NCCC(=O)N1CCN(S(=O)(=O)c2ccc(Br)cc2)CC1` | 3.602 |
| `COc1ccc(CNC2CCN(c3ccccc3)C2)c(OC)c1OC` (centres unmarked) | 3.014 |
| `CNC(=O)c1cccnc1NCc1ccc(Cn2ccnc2)cc1` | 7.668 |
| `Cc1n[nH]c(=O)c2c(NC(=O)CN3CCC(O)CC3)oc(C)c12` | 1.032 |
| `Cc1cc(=O)n(CC(=O)Nc2ccc(C(N)=O)cc2)nc1C` | 3.076 |
| `c1csc(N2CCCN(Cc3nc(C4CC4)no3)CC2)n1` | 5.344 |
| `O=C(CN1CCOc2ccccc2C1)N1Cc2cnn(CCO)c2C1` | 0.1146 |
| `Cc1c(-c2cccs2)nn2c(O)c3c(nc12)CN(C(=O)C1CC1)C3` | -0.9794 |

Measurements from “University of Dundee, Small-Polar-MMV Screening Library” (2021), ChEMBL document CHEMBL3988442.